Laboratory results from paper PMC2982839.

Protein sequences, listed by entry. Tags and fused reporters are not part of them.
UniProt Q6WKZ8: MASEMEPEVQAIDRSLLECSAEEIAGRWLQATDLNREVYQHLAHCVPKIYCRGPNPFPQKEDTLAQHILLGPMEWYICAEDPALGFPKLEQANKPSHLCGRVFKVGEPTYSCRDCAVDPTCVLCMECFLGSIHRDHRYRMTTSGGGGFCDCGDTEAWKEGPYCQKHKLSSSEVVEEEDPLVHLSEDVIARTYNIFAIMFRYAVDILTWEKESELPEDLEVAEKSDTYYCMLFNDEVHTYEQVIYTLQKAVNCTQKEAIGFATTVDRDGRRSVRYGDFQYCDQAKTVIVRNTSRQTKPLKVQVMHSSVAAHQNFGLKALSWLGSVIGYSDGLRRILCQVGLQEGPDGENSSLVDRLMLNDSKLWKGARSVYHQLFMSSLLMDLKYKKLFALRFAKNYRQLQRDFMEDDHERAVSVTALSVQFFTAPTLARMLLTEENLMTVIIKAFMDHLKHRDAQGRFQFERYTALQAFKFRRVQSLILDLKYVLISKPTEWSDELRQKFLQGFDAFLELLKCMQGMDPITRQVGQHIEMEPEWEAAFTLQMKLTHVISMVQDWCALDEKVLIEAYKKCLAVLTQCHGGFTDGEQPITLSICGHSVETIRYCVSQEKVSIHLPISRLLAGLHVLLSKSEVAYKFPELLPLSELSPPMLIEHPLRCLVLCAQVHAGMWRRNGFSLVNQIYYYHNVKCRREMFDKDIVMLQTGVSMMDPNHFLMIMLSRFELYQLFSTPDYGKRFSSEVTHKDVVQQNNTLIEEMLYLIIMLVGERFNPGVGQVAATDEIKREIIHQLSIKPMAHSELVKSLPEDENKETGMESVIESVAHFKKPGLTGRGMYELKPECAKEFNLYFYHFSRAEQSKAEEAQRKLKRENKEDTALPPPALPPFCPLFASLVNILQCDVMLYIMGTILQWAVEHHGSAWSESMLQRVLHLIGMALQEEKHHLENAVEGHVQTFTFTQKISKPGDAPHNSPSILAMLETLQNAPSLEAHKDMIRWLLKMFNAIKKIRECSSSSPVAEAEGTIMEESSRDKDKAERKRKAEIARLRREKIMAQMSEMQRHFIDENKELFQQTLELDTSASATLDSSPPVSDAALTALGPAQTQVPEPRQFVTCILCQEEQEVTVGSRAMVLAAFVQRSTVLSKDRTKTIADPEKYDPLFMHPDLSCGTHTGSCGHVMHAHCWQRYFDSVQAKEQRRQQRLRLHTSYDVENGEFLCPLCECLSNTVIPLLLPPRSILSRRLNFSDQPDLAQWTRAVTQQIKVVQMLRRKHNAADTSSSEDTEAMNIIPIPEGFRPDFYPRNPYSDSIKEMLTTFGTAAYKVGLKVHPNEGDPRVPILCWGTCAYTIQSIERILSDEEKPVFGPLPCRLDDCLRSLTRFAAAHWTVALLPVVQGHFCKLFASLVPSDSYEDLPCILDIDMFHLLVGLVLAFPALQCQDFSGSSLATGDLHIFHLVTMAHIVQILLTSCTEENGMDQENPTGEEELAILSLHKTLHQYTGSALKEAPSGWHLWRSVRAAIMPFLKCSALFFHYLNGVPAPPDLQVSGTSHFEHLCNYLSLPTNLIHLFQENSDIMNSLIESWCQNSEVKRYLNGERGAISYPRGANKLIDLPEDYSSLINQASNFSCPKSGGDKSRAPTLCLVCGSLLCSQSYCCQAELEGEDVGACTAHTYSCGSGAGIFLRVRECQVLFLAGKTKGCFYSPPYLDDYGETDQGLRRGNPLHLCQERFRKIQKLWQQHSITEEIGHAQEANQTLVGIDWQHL

Target: T1, Tex19.1 (mouse (endogenous in testis)) (UniProt Q99MV2)
T1 sequence: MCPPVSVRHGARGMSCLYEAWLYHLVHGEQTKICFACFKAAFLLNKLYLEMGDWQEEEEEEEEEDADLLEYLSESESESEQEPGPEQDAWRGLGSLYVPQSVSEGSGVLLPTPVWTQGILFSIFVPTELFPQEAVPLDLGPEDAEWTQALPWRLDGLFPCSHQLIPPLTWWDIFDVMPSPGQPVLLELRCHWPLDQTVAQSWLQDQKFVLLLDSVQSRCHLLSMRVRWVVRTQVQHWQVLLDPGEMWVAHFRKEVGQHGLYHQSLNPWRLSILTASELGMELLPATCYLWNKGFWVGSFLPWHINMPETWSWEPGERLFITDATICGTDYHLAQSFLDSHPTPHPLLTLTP
Test: affinity purification with mass spectrometry; IP with affinity-purified anti-Tex19.1 antibody from S100 testicular extracts of postnatal day 20 mice; washes with 250 mM NaCl, 0.1% NP-40, 0.05% deoxycholate; SDS-PAGE, SYPRO Ruby, bands cut out and identified by mass spectrometry; Tex19.1-/- testes in parallel

Substance: Ubr2 (from UniProt Q6WKZ8 1-1755)
- binding: binds

These are yes or no findings as the source states them, for the method shown. In cells and extracts the contact can be indirect. A yes stands for co-enrichment or nearness to the bait. Other partners may have been found.
